{"source": "PubChem BioAssay AID504444", "about": "(National Center for Advancing Translational Sciences (NCATS), 2011)", "note": "Among all 360,000 compounds or so, about 7,500 (2.1%) were called active. The inconclusive results got no clear call from the source; some entries with a clear call stand among them for comparison. Calls come from the whole dose curve; as a rule, active = well fitted inhibition curve with a large enough effect; inconclusive = small, poorly fitted or top-dose-only effect, or effect the other way; inactive = flat fitted curve, though single readings scatter. A potency beside an inconclusive call is a rough fit, not a confirmed value. Potency is the fitted concentration of half-maximal effect.", "data": [{"test": "Nrf2 qHTS screen for inhibitors; note: nearly all actives have a fitted effect of over 60% in size", "conditions": "A549 ARE-Fluc reporter, luciferase luminescence, 18-24 h; series mostly up to 46 µM", "outline": "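Two sequential reads on A549 ARE_Fluc cells exposed to compound for 18-24 h: a CellTiter-Fluor fluorescence read for viability, then a luciferase luminescence read for Nrf2/ARE activity.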", "values": [{"smiles": "O=C(Cc1csc(-c2cccc(Cl)c2)n1)Nc1cccc(S(=O)(=O)NC2=NCCC2)c1", "Potency": "active: 23.1 µM"}, {"smiles": "Cc1ccc(NC2=CC(c3ccccc3F)N(c3ccc(C)cc3)C2=O)cc1", "note": "(stereo unspecified)", "Potency": "inactive"}, {"smiles": "O=C(NCc1ccc(Cl)cc1)c1cccc(NC(=O)c2ccccc2)c1", "Potency": "inconclusive: 29.1 µM [falling, single point]"}, {"smiles": "O=C(/C=C/Nc1ccc(Oc2ccccc2)cc1)c1ccco1", "Potency": "inconclusive: 5.8 µM [activator, partial curve]"}, {"smiles": "CC(C)CN1C(=O)c2ccc(C(=O)Nc3nccs3)cc2C1=O", "Potency": "inconclusive: 8.2 µM [activator, partial curve]"}, {"smiles": "CCN(Cc1cc(=O)n2ccsc2n1)Cc1nc2ccccc2c(=O)[nH]1", "Potency": "inconclusive: 2.31 µM [activator, partial curve]"}, {"smiles": "CCCOc1ccc(N2CC(C(=O)Nc3cccc(Cl)c3Cl)CC2=O)cc1", "note": "(stereo unspecified)", "Potency": "inconclusive: 25.9 µM [falling, single point]"}, {"smiles": "COc1ccccc1OCCNC(=O)c1cccc(S(=O)(=O)N2CC(C)OC(C)C2)c1", "note": "(stereo unspecified)", "Potency": "inconclusive: 29.1 µM [falling, single point]"}, {"smiles": "CC(C)(C)c1ccc(OCCC(=O)Nc2ccc(N3CCOCC3)cc2N2CCOCC2)cc1", "Potency": "inconclusive: 32.6 µM [falling, single point]"}, {"smiles": "COc1ccc(NC(=O)c2ccccc2SC)cc1", "Potency": "inconclusive: 20.6 µM [activator, partial curve]"}, {"smiles": "CCOc1ccc(NC2=NCC(=O)N2Cc2cccs2)cc1", "Potency": "inactive"}, {"smiles": "Cc1ccc(NC(=O)Cc2ccc(Cl)c(Cl)c2)cc1S(=O)(=O)N(C)C", "Potency": "inconclusive: 25.9 µM [falling, partial curve, poor fit]"}, {"smiles": "O=C(NCCc1ccncc1)c1ccc2nc(Cc3cccc(Cl)c3)oc2c1", "Potency": "inconclusive: 10.3 µM [falling, partial curve]"}, {"smiles": "COc1cc(CNCc2ccc(OC)c3ccccc23)cc(OC)c1OC", "Potency": "inconclusive: 18.4 µM [falling, single point]"}, {"smiles": "CCOC(=O)Nc1ccc(=O)n(Cc2c(Cl)cccc2Cl)c1", "Potency": "inconclusive: 29.1 µM [falling, partial curve, poor fit]"}, {"smiles": "COc1cccc(-c2noc(-c3ccc(Br)o3)n2)c1", "Potency": "inconclusive: 9.2 µM [activator, partial curve]"}, {"smiles": "CC(=O)Nc1ccc(S(=O)(=O)NCCOc2ccc(Cl)cc2C)cc1", "Potency": "inconclusive: 18.4 µM [falling, partial curve, poor fit]"}, {"smiles": "c1ccc(-c2c[n+]3c(n2-c2ccccc2)SCC3)cc1", "Potency": "inconclusive: 29.1 µM [activator, single point]"}, {"smiles": "COc1ccc(-c2nc(=N)sn2-c2ccccc2)cc1", "Potency": "inactive"}, {"smiles": "CN(C(=O)c1cc(-c2ccccc2)on1)C1CCCCC1", "Potency": "inconclusive: 9.2 µM [activator, partial curve]"}, {"smiles": "COc1ccc(CNC(=O)c2cc3cc(C)ccc3n2C)cc1", "Potency": "inconclusive: 1.3 µM [activator, full curve]"}, {"smiles": "Cn1c(N)c(C(C[N+](=O)[O-])c2c(F)cccc2Cl)c(=O)n(C)c1=O", "note": "(stereo unspecified)", "Potency": "inactive"}, {"smiles": "CN1CCN(C(=O)CCN2C(=O)/C(=C/c3ccc(F)cc3)SC2=S)CC1", "Potency": "inconclusive: 29.1 µM [activator, single point]"}, {"smiles": "CCOC(=O)c1ccc2nc(C(F)(F)F)[nH]c(=O)c2c1", "Potency": "inactive"}, {"smiles": "O=C(CN1CCCCC1)Nc1c2c(nc3ccccc13)N(c1ccccc1)CC2", "Potency": "inconclusive: 1.03 µM [activator, partial curve]"}, {"smiles": "Cc1ccc(SC[C@H](c2ccccc2)N2CCN(C)CCC2=O)cc1", "Potency": "inconclusive: 13 µM [activator, partial curve]"}, {"smiles": "CC1CCCC(NC(=O)NC(=O)CCl)C1C", "note": "(stereo unspecified)", "Potency": "inactive"}, {"smiles": "CCOC(=O)N1CCN(S(=O)(=O)c2ccc(C(=O)Nc3sc4c(c3C(N)=O)CCN(CC)C4)cc2)CC1", "Potency": "inconclusive: 25.9 µM [falling, single point]"}, {"smiles": "Cn1c(CSCc2ccccc2)nnc1SCC(=O)Nc1nccs1", "Potency": "inconclusive: 16.4 µM [falling, partial curve, poor fit]"}, {"smiles": "COc1ccc(-c2cc3nc(C)c(CCC(=O)N4CCN(c5cccc(Cl)c5)CC4)c(C)n3n2)c(OC)c1", "Potency": "inconclusive: 32.6 µM [falling, single point]"}, {"smiles": "C=CCn1c(=NC(=O)c2ccc(S(=O)(=O)N3CCc4ccccc4C3)cc2)sc2cc(S(N)(=O)=O)ccc21", "Potency": "inconclusive: 14.6 µM [falling, partial curve, poor fit]"}, {"smiles": "CCc1ccccc1Nc1nc(N)nc(COC(=O)c2c(C)noc2C)n1", "Potency": "inconclusive: 29.1 µM [activator, single point]"}, {"smiles": "Cc1ccccc1-c1ncnn1-c1sc2c(c1C#N)CCCCC2", "Potency": "inconclusive: 1.46 µM [activator, full curve]"}, {"smiles": "COc1ccc(-c2cc(C(=O)OCC(=O)c3ccc(C)cc3)c3cccc(Cl)c3n2)cc1", "Potency": "inconclusive: 0.184 µM [falling, full curve]"}, {"smiles": "COCc1cc(CN2CCCC2)c(O)c2ncccc12", "Potency": "inconclusive: 32.6 µM [falling, single point]"}, {"smiles": "Cc1cccc(Cn2c(O)c(N=NC(=S)Nc3ccccc3F)c3ccccc32)c1", "Potency": "active: 5.8 µM"}, {"smiles": "N#Cc1cnn2c1nc(N1CCCCC1)c1ccccc12", "Potency": "inconclusive: 13 µM [falling, partial curve]"}, {"smiles": "O=[N+]([O-])c1ccc(S(=O)(=O)NCC(c2cccnc2)N2CCc3ccccc3C2)cc1", "note": "(stereo unspecified)", "Potency": "inactive"}, {"smiles": "Cc1ccccc1N1C(=O)CC1(C#N)c1ccc(OCc2ccccc2)cc1", "note": "(stereo unspecified)", "Potency": "inconclusive: 29.1 µM [falling, single point]"}, {"smiles": "COC(=O)c1ccc(COc2ccccc2/C=C/C(=O)c2ccc(OCC(=O)O)cc2)cc1", "Potency": "inactive"}, {"smiles": "COc1ccc(NC2=CC(=O)N(C)C2=O)cc1", "Potency": "inconclusive: 13 µM [activator, partial curve, poor fit]"}, {"smiles": "O=C(Nc1cc(S(=O)(=O)N2CCCCC2)ccc1O)c1ccccc1NS(=O)(=O)c1ccc(F)cc1", "Potency": "inactive"}, {"smiles": "Cc1cccc(NC(=O)CSc2nc(COc3ccccc3)nc3ccccc23)c1C", "Potency": "active: 25.9 µM"}, {"smiles": "CCCCOc1ccc(CN2CCSCC2)cc1", "Potency": "inconclusive: 29.1 µM [activator, single point]"}, {"smiles": "CCOC1(c2ccccc2)OC(=O)c2ccccc21", "note": "(stereo unspecified)", "Potency": "inconclusive: 18.4 µM [activator, partial curve, poor fit]"}, {"smiles": "CC(C)(C)C(=O)OCc1nc(-c2ccc3c(c2)OCCO3)cs1", "Potency": "inconclusive: 23.1 µM [activator, single point]"}, {"smiles": "OC(Cn1cnnc1)c1ccccc1", "note": "(stereo unspecified)", "Potency": "inactive"}, {"smiles": "CC1=C(c2ccc(F)cc2)[N+](=O)C(C)(C)N1[O-]", "Potency": "inconclusive: 1.3 µM [falling, partial curve, poor fit]"}, {"smiles": "Cc1cccc(C(=O)N2CCN=C2SCc2ccc([N+](=O)[O-])cc2)c1", "Potency": "inconclusive: 25.9 µM [falling, single point]"}, {"smiles": "COc1ccc2oc(=O)cc(CN3CCN(c4ccc(F)cc4)CC3)c2c1", "Potency": "inconclusive: 20.6 µM [falling, partial curve, poor fit]"}, {"smiles": "COC(=O)c1ccc(NC(=O)c2ccc(NS(=O)(=O)c3cccc4cccnc34)cc2)cc1", "Potency": "inactive"}, {"smiles": "CC1CCN(c2ccc(/C=N/n3nnnc3N)cc2[N+](=O)[O-])CC1", "Potency": "inconclusive: 1.3 µM [activator, full curve]"}, {"smiles": "COc1ccc(C(=O)NCc2nnc(SCC(=O)Nc3cccc(F)c3)o2)cc1", "Potency": "inconclusive: 1.16 µM [activator, full curve, poor fit]"}, {"smiles": "CCOC(=O)C(C(=O)OCC)c1c([N+](=O)[O-])c(=O)n2c3c(cccc13)CCC2", "Potency": "inconclusive: 13 µM [falling, single point]"}, {"smiles": "CC(C)CN1C(=O)C(=O)N(CC(=O)N2CCC(Cc3ccccc3)CC2)C1=O", "Potency": "inconclusive: 5.8 µM [falling, partial curve, poor fit]"}, {"smiles": "Cc1cc(C(=O)Nc2cccc3ccccc23)c(C)o1", "Potency": "inconclusive: 13 µM [activator, partial curve, poor fit]"}, {"smiles": "c1ccc(-n2ncc3c(NCc4cccnc4)ncnc32)cc1", "Potency": "inconclusive: 6.51 µM [activator, single point]"}, {"smiles": "CSCCC(NC(=O)c1cc(C(C)(C)C)oc1C)C(=O)O", "note": "(stereo unspecified)", "Potency": "inactive"}, {"smiles": "O=C(Nc1ccccc1)Nc1ncc([N+](=O)[O-])s1", "Potency": "inconclusive: 14.6 µM [falling, single point]"}, {"smiles": "Cc1sc2c(c1C)c(=O)n(CCc1ccccc1)c(=O)n2Cc1cccc(F)c1", "Potency": "inconclusive: 13 µM [falling, partial curve]"}, {"smiles": "O=C(C1CCC1)N1CCc2cc(S(=O)(=O)NCCN3CCN(c4ccccc4F)CC3)ccc21", "Potency": "inconclusive: 16.4 µM [falling, single point]"}, {"smiles": "CN(CC(=O)O/N=C(\\N)c1ccc([N+](=O)[O-])cc1)S(=O)(=O)c1ccc2ccccc2c1", "Potency": "inconclusive: 29.1 µM [falling, single point]"}, {"smiles": "CN1c2ccccc2C(O)=C(C(=S)Nc2ccc(F)c(Cl)c2)S1(=O)=O", "Potency": "inconclusive: 29.1 µM [falling, single point]"}, {"smiles": "Cc1[nH]c(-c2ccc(F)cc2)cc1C(=O)N1CCN(c2ccc(Cl)cc2)CC1", "Potency": "inconclusive: 29.1 µM [falling, single point]"}, {"smiles": "Cc1ccc(NC(=O)/C=C/c2ccc([N+](=O)[O-])s2)cc1", "Potency": "inconclusive: 16.4 µM [activator, partial curve]"}, {"smiles": "CCn1c(=O)cc(SCC(=O)Nc2ccc3c(c2)OCCO3)c2ccccc21", "Potency": "inconclusive: 32.6 µM [falling, partial curve, poor fit]"}]}]}
